In doi:10.1101/2022.01.12.476021:
These are yes or no findings as the source states them, for the method shown. Binding seen in cells or lysates may run through a third protein. Here binding means that the protein was enriched with, or labelled near, the bait; the list need not be complete.

Sequences of proteins named here, by UniProt entry; tags and fusion partners are left off.
UniProt P0AG99: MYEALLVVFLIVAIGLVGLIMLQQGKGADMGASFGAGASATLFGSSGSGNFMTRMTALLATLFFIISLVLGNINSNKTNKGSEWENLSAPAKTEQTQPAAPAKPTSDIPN

B1: YiaD (protein, UniProt P37665 21-219)
chain: CTTNPYTGEREAGKSAIGAGLGSLVGAGIGALSSSKKDRGKGALIGAAAGAALGGGVGYYMDVQEAKLRDKMRGTGVSVTRSGDNIILNMPNNVTFDSSSATLKPAGANTLTGVAMVLKEYPKTAVNVIGYTDSTGGHDLNMRLSQQRADSVASALITQGVDASRIRTQGLGPANPIASNSTAEGKAQNRRVEITLSPL
B2: HflC (protein, UniProt P0ABC3 1-334)
chain: MRKSVIAIIIIVLVVLYMSVFVVKEGERGITLRFGKVLRDDDNKPLVYEPGLHFKIPFIETVKMLDARIQTMDNQADRFVTKEKKDLIVDSYIKWRISDFSRYYLATGGGDISQAEVLLKRKFSDRLRSEIGRLDVKDIVTDSRGRLTLEVRDALNSGSAGTEDEVTTPAADNAIAEAAERVTAETKGKVPVINPNSMAALGIEVVDVRIKQINLPTEVSEAIYNRMRAEREAVARRHRSQGQEEAEKLRATADYEVTRTLAEAERQGRIMRGEGDAEAAKLFADAFSKDPDFYAFIRSLRAYENSFSGNQDVMVMSPDSDFFRYMKTPTSATR
B3: YajG (protein, UniProt P0ADA5 18-192)
chain: CAKPPTTIEVSPTITLPQQDPSLMGVTVSINGADQRTDQALAKVTRDNQIVTLTASRDLRFLLQEVLEKQMTARGYMVGPNGPVNLQIIVSQLYADVSQGNVRYNIATKADIAIIATAQNGNKMTKNYRASYNVEGAFQASNKNIADAVNSVLTDTIADMSQDTSIHEFIKQNAR

Molecular target: SecG (E. coli (endogenous in BL21 (DE3))) (UniProt P0AG99)
Assay: affinity purification with mass spectrometry

Binder | binding
B1 | binds
B2 | binds
B3 | binds
